PubChem BioAssay AID1053208, Peter MacCallum Cancer Centre – 2014
Test: 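Find knock-downs that sensitise mouse osteosarcoma cells to doxorubicin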 (primary screen). Cells: mouse osteosarcoma cells, early-passage culture from an engineered mouse model of fibroblastic bone tumour. Reagents: siRNA pool against mouse genes, 40 nM. Timing: about 120 h (48 h before drug, then 72 h with drug). Challenge: doxorubicin 100 nM for 72 h, roughly 30-40% inhibitory dose. Measured: 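Luminescent ATP signal taken as viability with or without 100 nM doxorubicin for 72 h; mean of two wells set against non-targeting siRNA and turned into robust z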. Reading the numbers: viability z-score with doxorubicin and doxorubicin viability vs non-targeting: higher = more viable cells under doxorubicin; viability z-score without drug: higher = more viable cells with knock-down alone; z-score of drug to no-drug ratio: higher = less drug sensitisation by knock-down. Active means: 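a pool counts as active when its viability z-score with doxorubicin is -2 or below and its z-score without drug lies between -2 and 2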.
Here is one part, drawn at random, of about 17,000 reagents tested. 788 of them (4.7%) count as active. 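Calls rest on z-score classes alone; an extra cut-off of viability at most 70% of control was not applied to them.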 Unmarked entries are inactive.

| gene symbol | combined z-score class | viability z-score with doxorubicin | viability z-score without drug | z-score of drug to no-drug ratio | doxorubicin viability vs non-targeting |
| --- | --- | --- | --- | --- | --- |
| Wdr62 (WD repeat domain 62) | no change with or without drug | -0.22 | 1.01 | -0.79 | 0.92 |
| Smad5 (SMAD family member 5) | no change with or without drug | 1.35 | -0.84 | 2.25 | 1.06 |
| Hsd17b2 (hydroxysteroid (17-beta) dehydrogenase 2) | no change with or without drug | -1.01 | -1.69 | 0.22 | 0.85 |
| Tmem140 (transmembrane protein 140) | high cell count without drug only | 0.34 | 2.19 | -0.9 | 0.97 |
| Chst1 (carbohydrate sulfotransferase 1) | no change with or without drug | -0.56 | 0.17 | -0.56 | 0.89 |
| Atf1 (activating transcription factor 1) | no change with or without drug | -1.12 | -0.67 | -0.67 | 0.84 |
| Psmg2 (proteasome (prosome, macropain) assembly chaperone 2) | low cell count with doxorubicin only (active) | -2.25 | 0.17 | -2.36 | 0.74 |
| Tspear (thrombospondin type laminin G domain and EAR repeats) | no change with or without drug | -1.35 | -0.17 | -1.24 | 0.82 |
| Rsad2 (radical S-adenosyl methionine domain containing 2) | no change with or without drug | -0.11 | -1.18 | 0.9 | 0.93 |
| Ctc1 (CTS telomere maintenance complex component 1) | no change with or without drug | 0.79 | -0.51 | 1.35 | 1.01 |
| Siglecf (sialic acid binding Ig-like lectin F) | no change with or without drug | -0.67 | 0.34 | -0.79 | 0.88 |
| Or5d38 (olfactory receptor family 5 subfamily D member 38) | no change with or without drug | 0 | -1.18 | 1.01 | 0.94 |
| Raf1 (Raf1 proto-oncogene, serine/threonine kinase) | no change with or without drug | -1.46 | -0.84 | -0.9 | 0.81 |
| Spdye4b (speedy/RINGO cell cycle regulator family, member E4B) | no change with or without drug | 1.8 | 1.85 | 0.67 | 1.1 |
| Fras1 (Fraser extracellular matrix complex subunit 1) | no change with or without drug | 0.34 | 0.17 | 0.34 | 0.97 |
| Acap3 (ArfGAP with coiled-coil, ankyrin repeat and PH domains 3) | low cell count without drug only | -1.8 | -3.54 | 0.79 | 0.78 |
| Pip (prolactin induced protein) | no change with or without drug | 0.22 | 1.52 | -0.67 | 0.96 |
| Klk9 (kallikrein related-peptidase 9) | no change with or without drug | -0.22 | 0.17 | -0.22 | 0.92 |
| Dynlrb1 (dynein light chain roadblock-type 1) | no change with or without drug | 1.35 | 0.17 | 1.35 | 1.06 |
| Hdc (histidine decarboxylase) | no change with or without drug | 0 | 0.17 | 0 | 0.94 |
| Epha2 (Eph receptor A2) | no change with or without drug | 0.34 | -0.17 | 0.56 | 0.97 |
| Perp (PERP, TP53 apoptosis effector) | no change with or without drug | 0.11 | 0.17 | 0.11 | 0.95 |
| L3hypdh (L-3-hydroxyproline dehydratase (trans-)) | no change with or without drug | -0.45 | -1.52 | 0.79 | 0.9 |
| Mapk1ip1l | no change with or without drug | -0.22 | -0.51 | 0.22 | 0.92 |
| Nop9 (NOP9 nucleolar protein) | no change with or without drug | -1.8 | -0.51 | -1.46 | 0.78 |
| 2010204K13Rik (RIKEN cDNA 2010204K13 gene) | no change with or without drug | -1.01 | 0.34 | -1.12 | 0.85 |
| Six3os1 (SIX homeobox 3, opposite strand 1) | no change with or without drug | 0 | 0.84 | -0.45 | 0.94 |
| Map7 (microtubule-associated protein 7) | no change with or without drug | 0.67 | -0.17 | 0.9 | 1 |
| Mrpl27 (mitochondrial ribosomal protein L27) | high cell count with doxorubicin only | 2.59 | -0.51 | 3.26 | 1.17 |
| Hnrnpc (heterogeneous nuclear ribonucleoprotein C) | no change with or without drug | -1.57 | 0.84 | -2.02 | 0.8 |
| Dennd1a (DENN domain containing 1A) | no change with or without drug | -0.22 | 0.34 | -0.34 | 0.92 |
| Steap3 (STEAP family member 3) | no change with or without drug | -1.12 | -1.01 | -0.45 | 0.84 |
| Krtap1-5 (keratin associated protein 1-5) | no change with or without drug | 0.9 | 0.17 | 0.9 | 1.02 |
| Maob (monoamine oxidase B) | no change with or without drug | 0.9 | -1.52 | 2.36 | 1.02 |
| Tiaf2 (TGF-beta1-induced anti-apoptotic factor 2) | no change with or without drug | -1.8 | 0.51 | -2.02 | 0.78 |
| Gatd3a (glutamine amidotransferase like class 1 domain containing 3A) | no change with or without drug | 0.22 | -1.18 | 1.24 | 0.96 |
| Zic2 (zinc finger protein of the cerebellum 2) | no change with or without drug | 0.45 | 0.17 | 0.45 | 0.98 |
| Tecta (tectorin alpha) | no change with or without drug | -1.46 | -0.17 | -1.35 | 0.81 |
| Or1a1b (olfactory receptor family 1 subfamily A member 1B) | no change with or without drug | -1.01 | -0.51 | -0.67 | 0.85 |
| Speer3 (spermatogenesis associated glutamate (E)-rich protein 3) | no change with or without drug | 0.11 | 0.34 | 0 | 0.95 |
| Tmigd1 (transmembrane and immunoglobulin domain containing 1) | no change with or without drug | 0.67 | 1.85 | -0.45 | 1 |
| Cab39 (calcium binding protein 39) | no change with or without drug | -0.45 | -0.51 | 0 | 0.9 |
| Kcng3 (potassium voltage-gated channel, subfamily G, member 3) | no change with or without drug | 0.45 | 0 | 0.56 | 0.98 |
| Becn1 (beclin 1, autophagy related) | no change with or without drug | 1.35 | 0.51 | 1.12 | 1.06 |
| Klf5 (Kruppel-like transcription factor 5) | no change with or without drug | -0.45 | 0.84 | -0.9 | 0.9 |
| Mpg (N-methylpurine-DNA glycosylase) | no change with or without drug | 1.91 | -0.17 | 2.25 | 1.11 |
| Rln1 (relaxin 1) | high cell count without drug only | 1.57 | 2.7 | -0.11 | 1.08 |
| Ddx5 (DEAD box helicase 5) | no change with or without drug | 0 | 0.51 | -0.22 | 0.94 |
| Ints9 (integrator complex subunit 9) | no change with or without drug | -0.67 | 0.17 | -0.67 | 0.88 |
| Xylt2 (xylosyltransferase II) | no change with or without drug | -0.34 | 0.17 | -0.34 | 0.91 |

Sorted by “viability z-score without drug” (highest first): 8 of the entries above.
| gene symbol | combined z-score class | viability z-score with doxorubicin | viability z-score without drug | z-score of drug to no-drug ratio | doxorubicin viability vs non-targeting |
| --- | --- | --- | --- | --- | --- |
| Tmem140 (transmembrane protein 140) | high cell count without drug only | 0.34 | 2.19 | -0.9 | 0.97 |
| Siglecf (sialic acid binding Ig-like lectin F) | no change with or without drug | -0.67 | 0.34 | -0.79 | 0.88 |
| Chst1 (carbohydrate sulfotransferase 1) | no change with or without drug | -0.56 | 0.17 | -0.56 | 0.89 |
| Psmg2 (proteasome (prosome, macropain) assembly chaperone 2) | low cell count with doxorubicin only (active) | -2.25 | 0.17 | -2.36 | 0.74 |
| Tspear (thrombospondin type laminin G domain and EAR repeats) | no change with or without drug | -1.35 | -0.17 | -1.24 | 0.82 |
| Ctc1 (CTS telomere maintenance complex component 1) | no change with or without drug | 0.79 | -0.51 | 1.35 | 1.01 |
| Atf1 (activating transcription factor 1) | no change with or without drug | -1.12 | -0.67 | -0.67 | 0.84 |
| Rsad2 (radical S-adenosyl methionine domain containing 2) | no change with or without drug | -0.11 | -1.18 | 0.9 | 0.93 |
